These are yes or no findings as the source states them, for the method shown. Some binding calls cover weakened binding; strength is not graded here. Where a sequence is shown, tags or fusion partners need not be part of it.
T1: human ANGPTL8 monomer protein with myc-myc-his tag (human) (UniProt Q6UXH0)
T1 sequence: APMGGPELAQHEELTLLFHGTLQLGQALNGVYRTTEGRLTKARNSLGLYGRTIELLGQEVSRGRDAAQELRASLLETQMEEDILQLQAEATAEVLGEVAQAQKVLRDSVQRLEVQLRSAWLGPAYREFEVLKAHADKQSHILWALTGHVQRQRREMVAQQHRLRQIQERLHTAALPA

T2: untagged human ANGPTL8 protein (outsourced production, Genscript) (human) (UniProt Q6UXH0)
T2 sequence: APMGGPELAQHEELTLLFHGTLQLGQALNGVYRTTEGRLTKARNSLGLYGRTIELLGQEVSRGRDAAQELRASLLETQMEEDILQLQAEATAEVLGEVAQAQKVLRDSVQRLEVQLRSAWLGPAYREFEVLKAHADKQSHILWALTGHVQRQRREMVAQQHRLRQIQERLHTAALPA


Assays:
[1] = target: T1, human ANGPTL8 monomer protein with myc-myc-his tag (human); experiment: sandwich ELISA, capture mAb, monomer standard
[2] = target: T2, untagged human ANGPTL8 protein (outsourced production, Genscript) (human); experiment: sandwich ELISA, H4H15347P capture, biotin-H4H15318P detection
[3] = target: T1, human ANGPTL8 monomer protein with myc-myc-his tag (human); experiment: sandwich ELISA, biotinylated detection mAb, monomer standard

Row | Binder | binding [1] | binding [2] | binding [3]
1 | H4H15347P (antibody, human IgG4, V domains shown) VH: EVQLVESGGGLVQPGGSLRLSCAASGFTFRNYAMNWARQAPGKGLEWVSGITGSGGATYYADSVKGRFTISRENSKNTLFLQMDTLRAEDTAVYYCAKDRRYFPTSGGPQWGQGTLVTVSS VL: DIVMTQSPLSLPVTPGEPASISCRSSRSLLHSSGYNYLDWYLQKPGQSPQLLLYLGSNRASGVPDRFSGSGSGTYFTLKISRVDAEDVGVYYCMQALQTPWTFGQGTKVEIK | binds | binds | –
2 | H4H15318P (antibody, V domains shown) VH: QVQLVESGGGVVQPGRSLRLSCTASGFTFGNFGIHWVRQAPGKGLEWVAVISYDGTDKFYADPVKGRFIISRDNSMNILYLQMNSLRAEDTAVYYCAKDGEMELRGYYYYYGMDVWGQGTTVTVSS VL: DIQMTQSPSSVSASVGDRVTITCRASQGINTWLAWYQQKPGTAPKLLIFAASSLESGVPSRFSGSGFGTDFTLTISSLQSEDLATYFCQQVHSPPYTFGQGTKLEIK | – | binds | binds

From patent US20200393470A1
